Results as given in ChEMBL document CHEMBL4825722, “Discovery of Potent Selective Nonzinc Binding Autotaxin Inhibitor BIO-32546” (ACS Med Chem Lett, 2021).
In brackets after ≈: the same amount, converted by molar mass.

Columns and labels:
hERG (KCNH2) [1] = target: T1, hERG (KCNH2) (Homo sapiens, UniProt Q12809); experiment: Inhibition of human ERG at 10 uM by automated patch-clamp assay relative to control
Autotaxin = Autotaxin (Homo sapiens, UniProt Q13822); experiment: Inhibition of human ATX assessed as reduction in LPA formation using FS-3 as substrate preincubated for 30 mins followed by substrate addition and measured after 2 hrs by FRET assay
hERG (KCNH2) [2] = target: T1, hERG (KCNH2); experiment: Inhibition of human ERG at 1 uM by automated patch-clamp assay relative to control
[3] = Solubility of the compound at pH 7.0 by shake flask method; conditions: buffer

SMILES | inhibition at 10 µM (hERG (KCNH2) [1]) [%] | IC50 (Autotaxin) [µM] | inhibition at 1 µM (hERG (KCNH2) [2]) [%] | solubility thermodynamic [3] [µg/mL]
C[C@H](c1ccc2ccc(O[C@H]3CC[C@@H](C)CC3)c(C(F)(F)F)c2c1)N1C2CCC1CC(C(=O)O)C2 (some centres not stated) | 25.6 | 0.23 | 4.5 | 
C[C@@H](c1ccc2ccc(O[C@H]3CC[C@@H](C)CC3)c(C(F)(F)F)c2c1)N1C2CCC1CC(C(=O)O)C2 (some centres not stated) | 21.9 | 0.0014 | 2.2 | 27 (≈ 55.1 µM)
